Values quoted from earlier work as cited in patent publication US20110178180A1, “DEUTERIUM-ENRICHED COLCHICINE, THIOCOLCHICINE, AND DERIVATIVES THEREOF; METHODS OF PREPARATION; AND USE THEREOF” (priority 2010, published 2011).

Tested on: rat model
Conditions: metabolites of thiocolchicoside

COc1c(O)cc2c(c1OC)-c1ccc(SC)c(=O)cc1[C@@H](NC(C)=O)CC2 [aglycone derivative]
muscle relaxant activity: no muscle relaxant activity
